Results on one compound are retold here after PMC11091526 (International Journal for Parasitology: Drugs and Drug …, 2024).

The IC50 is the concentration that gives 50% inhibition. As usually defined, the IC90 is the concentration needed for an effect of 90%.

For test [1], the system named is N. fowleri (ATCC® 30,808™) trophozoites. In kind it is cell-based, Naegleria fowleri.
Test [2] relates to N. fowleri ATCC® 30,808™ cysts. The test is described as follows: microbe, parasite or virus in culture. Type of test: cell-based. Particulars: Naegleria fowleri, ATCC30, read-out: N. fowleri ATCC 30,808 IC50, cyst stage.
Test [3] has as its system N. fowleri ATCC® 30,808™ trophozoites. The test is described as follows: In vitro activity against trophozoites, alamarBlue, 48 h. In kind it is cell-based, Naegleria fowleri. For orientation: Alamar Blue is a resazurin reagent that responds to reducing activity.
The subject of test [4] is N. fowleri ATCC® 30,215™ trophozoites. The description is as above. Type of test: cell-based. Particulars: Naegleria fowleri, ATCC30, 48 h, read-out: N. fowleri ATCC 30,215 IC50.

`CN1CCC[C@@H]1CCO[C@](C)(c1ccccc1)c1ccc(Cl)cc1` [CLEMASTINE, clemastine]: the “Inhibition of ATP synthesis in comparison to the negative control” value in test [1] is given as “over 96%”. Besides, the IC50 in test [2] amounted to 8.2 ± 3.37 µM; in test [3] (Naegleria fowleri, ATCC30, 48 h, read-out: N. fowleri ATCC 30,808 IC50, trophozoite stage), 7.68 ± 0.32 µM; in test [4], 5.69 ± 1.16 µM. In addition, the “S.I. ATCC 30,808 (selectivity index CC50/IC50)” value in test [3] (CC50 J774A.1 / IC50 ATCC 30,808 trophozoites) came to 7.64. The IC90 in test [3] (Naegleria fowleri, ATCC30, read-out: N. fowleri ATCC 30,808 IC90) turned out to be 18.6 ± 5.64 µM.
